Source: US20110183861A1 (ABLYNN N V, published 2011)
These are yes or no findings as the source states them, for the method shown. Some results given as binding are weak or reduced against the parent protein; the word gives no strength.

Chains of the proteins cited; added tags and fusions are not shown. Residues count along the entry.
UniProt P08887, residues 20-358: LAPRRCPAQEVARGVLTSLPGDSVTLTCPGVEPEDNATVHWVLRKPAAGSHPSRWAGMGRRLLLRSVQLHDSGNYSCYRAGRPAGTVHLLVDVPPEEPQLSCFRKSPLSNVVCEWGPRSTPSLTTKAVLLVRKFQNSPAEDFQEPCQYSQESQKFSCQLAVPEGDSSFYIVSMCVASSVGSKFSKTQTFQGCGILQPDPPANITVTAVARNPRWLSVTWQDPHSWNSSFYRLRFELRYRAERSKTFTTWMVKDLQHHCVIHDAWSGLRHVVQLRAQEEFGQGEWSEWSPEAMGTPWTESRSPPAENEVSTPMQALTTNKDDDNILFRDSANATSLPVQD
UniProt P04275, residues 1261-1468: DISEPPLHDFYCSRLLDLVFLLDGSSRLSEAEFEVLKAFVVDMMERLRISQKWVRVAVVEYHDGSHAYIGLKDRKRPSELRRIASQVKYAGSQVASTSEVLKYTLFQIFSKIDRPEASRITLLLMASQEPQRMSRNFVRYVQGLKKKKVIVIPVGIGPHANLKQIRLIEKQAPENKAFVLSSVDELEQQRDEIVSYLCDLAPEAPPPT

What follows are binders tested against hIL-6R (human) (UniProt P08887) (assay: Biacore3000, initial binding rate on high density hIL-6R chip).

| Binder | binding |
| --- | --- |
| IL6R201 (VHH) VHH: EVQLVESGGGLVQPGGSLRLSCAASGFTFSDYDIGWFRQAPGKGREGVSGISSSDGNTYYADSVKGRFTISRDNAKNTLYLQMNSLRPEDTAVYYCAAEPPDSSWYLDGSPEFFKYWGQGTLVTVSS | binds |
| IL6R201_D55E (VHH) VHH: EVQLVESGGGLVQPGGSLRLSCAASGFTFSDYDIGWFRQAPGKGREGVSGISSSEGNTYYADSVKGRFTISRDNAKNTLYLQMNSLRPEDTAVYYCAAEPPDSSWYLDGSPEFFKYWGQGTLVTVSS | binds |
| IL6R201_D55Q (VHH) VHH: EVQLVESGGGLVQPGGSLRLSCAASGFTFSDYDIGWFRQAPGKGREGVSGISSSQGNTYYADSVKGRFTISRDNAKNTLYLQMNSLRPEDTAVYYCAAEPPDSSWYLDGSPEFFKYWGQGTLVTVSS | binds |
| IL6R201_D102E (VHH) VHH: EVQLVESGGGLVQPGGSLRLSCAASGFTFSDYDIGWFRQAPGKGREGVSGISSSDGNTYYADSVKGRFTISRDNAKNTLYLQMNSLRPEDTAVYYCAAEPPESSWYLDGSPEFFKYWGQGTLVTVSS | binds |

Results, then the binder that gave them:

| binding | Binder |
| --- | --- |
| binds | IL6R201_D108E (VHH) VHH: EVQLVESGGGLVQPGGSLRLSCAASGFTFSDYDIGWFRQAPGKGREGVSGISSSDGNTYYADSVKGRFTISRDNAKNTLYLQMNSLRPEDTAVYYCAAEPPDSSWYLEGSPEFFKYWGQGTLVTVSS |
| binds | IL6R201_D108Q (VHH) VHH: EVQLVESGGGLVQPGGSLRLSCAASGFTFSDYDIGWFRQAPGKGREGVSGISSSDGNTYYADSVKGRFTISRDNAKNTLYLQMNSLRPEDTAVYYCAAEPPDSSWYLQGSPEFFKYWGQGTLVTVSS |
| binds | IL6R201_D102Q (VHH) VHH: EVQLVESGGGLVQPGGSLRLSCAASGFTFSDYDIGWFRQAPGKGREGVSGISSSDGNTYYADSVKGRFTISRDNAKNTLYLQMNSLRPEDTAVYYCAAEPPQSSWYLDGSPEFFKYWGQGTLVTVSS |

Each binder was assayed against A1 domain of vWF (UniProt P04275) (assay: Biacore, sensor chip coated with 3500RU vWF A1 domain, samples stored at 37° C. against reference).

| binding | Binder |
| --- | --- |
| binds | Stab. 12A2H1; SEQ ID NO: 2 with E1D, D62E, M78T, D105Q (VHH, also called 12A2H1 SV1; 12A2h1SV1) VHH: DVQLVESGGGLVQPGGSLRLSCAASGRTFSYNPMGWFRQAPGKGRELVAAISRTGGSTYYPESVEGRFTISRDNAKRTVYLQMNSLRAEDTAVYYCAAAGVRAEQGRVRTLPSEYTFWGQGTQVTVSS |
| binds | VWF0001; SEQ ID NO: 1 with E1D, D62E, M78T, D105Q, D193E, M209T, D236Q (VHH) DVQLVESGGGLVQPGGSLRLSCAASGRTFSYNPMGWFRQAPGKGRELVAAISRTGGSTYYPESVEGRFTISRDNAKRTVYLQMNSLRAEDTAVYYCAAAGVRAEQGRVRTLPSEYTFWGQGTQVTVSSAAAEVQLVESGGGLVQPGGSLRLSCAASGRTFSYNPMGWFRQAPGKGRELVAAISRTGGSTYYPESVEGRFTISRDNAKRTVYLQMNSLRAEDTAVYYCAAAGVRAEQGRVRTLPSEYTFWGQGTQVTVSS |

What follows are binders tested against A1 domain of vWF (UniProt P04275) (assay: Biacore potency assay, parallel line method).

| binding | Binder |
| --- | --- |
| binds | VWF0001; SEQ ID NO: 1 with E1D, D62E, M78T, D105Q, D193E, M209T, D236Q (VHH) DVQLVESGGGLVQPGGSLRLSCAASGRTFSYNPMGWFRQAPGKGRELVAAISRTGGSTYYPESVEGRFTISRDNAKRTVYLQMNSLRAEDTAVYYCAAAGVRAEQGRVRTLPSEYTFWGQGTQVTVSSAAAEVQLVESGGGLVQPGGSLRLSCAASGRTFSYNPMGWFRQAPGKGRELVAAISRTGGSTYYPESVEGRFTISRDNAKRTVYLQMNSLRAEDTAVYYCAAAGVRAEQGRVRTLPSEYTFWGQGTQVTVSS |
